# Measured values taken from patent publication USRE48164E1, “Compounds and compositions for delivering active agents” (EMISPHERE TECHNOLOGIES INC., priority 2007, dated 2020).
# “And” between values parts separate entries of the source, which are not always exact repeats. Identical values can stand only once. At least one read-out could not be matched to a standard name with certainty.
# System: male, Sprague-Dawley rats
# Test: Oral Delivery of Insulin in Rats: whole blood glucose after oral gavage of insulin with delivery agent compound
# Assay type: in vivo, rat
# Conditions: sodium salt of delivery agent, insulin 0.5 mg/kg, delivery agent 25 mg/kg, time period 30 minutes
# Procedure: Human recombinant insulin (ICN Biomedicals, Aurora, Ohio) was dissolved in deionized water (ph˜6.5) to obtain stock insulin solutions having a concentration of 15 mg/ml. Sodium salts of the delivery agent compounds shown below in table 1 dissolved in deionized water to obtain a 200 mg/ml delivery agent solution. The free acid form of delivery agent as converted to the sodium salt by adding one equivalent of sodium hydroxide. Solutions were vortexted, sonicated, and heated. If necessary, additional sodium hydroxide was added in μl quantities to achieve uniform solubility in the delivery agent solutions. Solutions were adjusted to a pit of 3.5-8.5 by the addition of either hydrochloric acid or sodium hydroxide, as appropriate. The insulin stock solution was then added to the delivery agent solutions to obtain an administration solution ultimately having an insulin concentration of 0.5 mg/ml. […]
# To determine the pharmacodynamic response, a hand-held glucometer (OneTouch Ultra, LifeScan—Johnson & Johnson, New Brunswick, N.J.) was used to measure whole blood glucose after administration of insulin or insulin and delivery agent. After discarding the first drop of blood, a small sample (˜5-10 μls) was touched to the glucometer test strip (OneTouch Ultra, LifeScan) and a blood glucose reading was generated by the meter. […]
structure (smiles),measurement,value
"Cc1ccc(C)c(OCCCC(=O)O)c1 [Compound 1, 4-(2,5-Dimethylphenoxy)butyric acid]",Average Glucose Reduction (5 rats/experiment),−8.8% and −0.8%
